For 2 molecules, binding results are on record in publication PMC5356870.

The target in one assay is T1, myc-tagged TRAF2 (UniProt Q12933).
T1 sequence: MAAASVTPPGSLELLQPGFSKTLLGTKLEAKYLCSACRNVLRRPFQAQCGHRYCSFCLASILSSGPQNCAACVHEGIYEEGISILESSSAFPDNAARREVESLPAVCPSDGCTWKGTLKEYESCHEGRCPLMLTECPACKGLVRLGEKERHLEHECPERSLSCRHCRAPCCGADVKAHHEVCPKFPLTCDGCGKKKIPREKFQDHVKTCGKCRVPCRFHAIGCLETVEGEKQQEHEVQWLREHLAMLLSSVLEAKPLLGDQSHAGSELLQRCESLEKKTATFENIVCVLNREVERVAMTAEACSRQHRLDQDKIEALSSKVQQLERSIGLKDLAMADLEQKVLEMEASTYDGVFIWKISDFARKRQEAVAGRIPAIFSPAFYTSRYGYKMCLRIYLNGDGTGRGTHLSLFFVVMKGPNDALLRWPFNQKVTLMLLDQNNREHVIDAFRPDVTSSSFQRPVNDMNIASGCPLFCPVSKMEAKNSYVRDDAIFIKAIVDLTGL
Description: co-IP; HEK293 cells transfected with myc-tagged TRAF2, lysed 48 h after transfection in IP lysis buffer (50 mM HEPES, 420 mM KCl, 0.1% NP-40, 1 mM EDTA); precipitated with CD147 antibodies or c-myc antibody on magnetic beads overnight at 4°C, IgG control; immunoblot for CD147 and myc-tagged TRAF2. For orientation: Immunoblotting shows a protein as a band on a membrane.

Assay [1] addresses CD147 (mouse (endogenous in GC-2)). Nature of the assay: co-IP; GC-2 cell lysate, endogenous proteins; precipitated with anti-CD147 antibody on magnetic beads; immunoblot for CD147 and TRAF2.

These are yes or no findings as the source states them, for the method shown. Binding seen in cells or lysates may run through a third protein. A result given as binding can be weak or reduced; the word gives no strength. For some assays here: Tags and fused reporters may be left off the sequences shown.

Regarding CD147 (from UniProt P35613-2), the binding result with myc-tagged TRAF2 was “binds”.

B1: TRAF2 (protein, UniProt P39429 1-501)
chain: MAAASVTSPGSLELLQPGFSKTLLGTRLEAKYLCSACKNILRRPFQAQCGHRYCSFCLTSILSSGPQNCAACVYEGLYEEGISILESSSAFPDNAARREVESLPAVCPNDGCTWKGTLKEYESCHEGLCPFLLTECPACKGLVRLSEKEHHTEQECPKRSLSCQHCRAPCSHVDLEVHYEVCPKFPLTCDGCGKKKIPRETFQDHVRACSKCRVLCRFHTVGCSEMVETENLQDHELQRLREHLALLLSSFLEAQASPGTLNQVGPELLQRCQILEQKIATFENIVCVLNREVERVAVTAEACSRQHRLDQDKIEALSNKVQQLERSIGLKDLAMADLEQKVSELEVSTYDGVFIWKISDFTRKRQEAVAGRTPAIFSPAFYTSRYGYKMCLRVYLNGDGTGRGTHLSLFFVVMKGPNDALLQWPFNQKVTLMLLDHNNREHVIDAFRPDVTSSSFQRPVSDMNIASGCPLFCPVSKMEAKNSYVRDDAIFIKAIVDLTGL
For the molecule B1, the binding entry in assay [1] is reported as “binds”.
